Measurements reported in PubChem BioAssay AID1259308 (NCATS, 2017)
In all, the deposit lists about 59,000 reagents; shown is a part drawn at random. About 1,510 of them (2.6%) were called active. 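Calls use total luciferase alone and ignore viability, so some active siRNAs may act by altering cell number.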 The numbers tell different reagents against one gene apart.

- Purpose: 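Genes whose loss raises luciferase production in HEK293 cells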 (primary screen)
- Cells: human HEK293 embryonic kidney cells stably expressing firefly luciferase (HEK-CMV-Luc2-Hygro)
- Reagent: single siRNA against human genes, 0.8 pmol siRNA per well
- Timing: 72 h
- Read-out: 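Luciferase light (ONE-Glo) measured on one replicate plate set and viability (CellTiter-Glo) on the other, scaled to a negative control siRNA, with robust z-scores and luciferase per cell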
- Reading the numbers: total luciferase, z-score and total luciferase, % of control: higher = more reporter protein produced; luciferase per cell, z-score: higher = more reporter output per viable cell; viable cells, % of control: higher = more viable cells
- Active means: 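An siRNA counts as active if its total luciferase robust z-score exceeds 3; genes with two or more such siRNAs out of three were retested with fresh siRNAs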
- Meaning of the calls: active = raised luciferase; inactive = no rise

target,reagent,"total luciferase, z-score","total luciferase, % of control","luciferase per cell, z-score","viable cells, % of control",Outcome
ATP8A1,1,-0.915,63.7,-0.833,88.6,inactive
ATP8A1,2,0.268,87.2,0.258,91,inactive
ATP8A1,3,-2.02,41.7,-2.82,98.1,inactive
ZEB2,1,1.07,103,0.645,97.2,inactive
ZEB2,2,-0.401,73.9,-0.22,87.5,inactive
ZEB2,3,-0.241,77.1,-0.733,104,inactive
CLUL1,1,-0.0152,81.6,-0.0299,91.9,inactive
CLUL1,2,-0.326,75.4,-0.089,86.3,inactive
CLUL1,3,-0.127,79.4,-0.0231,89.2,inactive
TBC1D32,1,-0.921,63.6,0.00836,70.9,inactive
TBC1D32,2,0.42,90.2,0.635,85.3,inactive
TBC1D32,3,2.32,128,1.85,87.9,inactive
PARD3,1,-0.135,79.2,0.251,82.8,inactive
PARD3,2,-0.936,63.3,-0.782,86.9,inactive
PARD3,3,-0.208,77.7,-0.227,92.2,inactive
YIPF6,1,0.207,86,0.922,75.4,inactive
YIPF6,2,-0.566,70.6,-0.28,85,inactive
YIPF6,3,-0.882,64.3,-0.464,81.2,inactive
ANKRD13D,1,0.935,100,1.79,70.1,inactive
ANKRD13D,2,0.693,95.7,0.894,84.5,inactive
ANKRD13D,3,2.07,123,2.1,79.1,inactive

Entries above whose gene name begins with C or c:
target,reagent,"total luciferase, z-score","total luciferase, % of control","luciferase per cell, z-score","viable cells, % of control",Outcome
CLUL1,1,-0.0152,81.6,-0.0299,91.9,inactive
CLUL1,2,-0.326,75.4,-0.089,86.3,inactive
CLUL1,3,-0.127,79.4,-0.0231,89.2,inactive

The list goes on:
target,reagent,"total luciferase, z-score","total luciferase, % of control","luciferase per cell, z-score","viable cells, % of control",Outcome
HSPB9,1,-1.04,61.3,-1.55,103,inactive
HSPB9,2,1.86,119,1.87,81.1,inactive
HSPB9,3,-1.98,42.5,-0.809,58.8,inactive
AP1G2,1,1.63,114,-0.0109,128,inactive
AP1G2,2,0.713,96.1,-0.0643,109,inactive
AP1G2,3,-0.61,69.8,-0.951,100,inactive
RBM12,1,0.914,100,0.853,89.3,inactive
RBM12,2,2.03,122,1.85,83.9,inactive
RBM12,3,0.23,86.5,1.05,73.3,inactive
NDC80,1,1.66,115,2.88,60.2,inactive
NDC80,2,0.677,95.3,0.942,83.1,inactive
NDC80,3,0.696,95.7,1.62,69.8,inactive
TAAR9,1,-1.24,57.3,-1.98,108,inactive
TAAR9,2,0.859,99,1.39,76.7,inactive
TAAR9,3,1.77,117,0.937,102,inactive
ALKAL1,1,-0.281,76.3,-0.45,96,inactive
ALKAL1,2,-1.82,45.6,-1.06,67.4,inactive
ALKAL1,3,-0.0756,80.4,-0.536,103,inactive
KRTAP5-4,1,0.311,88.1,0.315,90.6,inactive
KRTAP5-4,2,0.143,84.7,0.466,83.8,inactive
KRTAP5-4,3,0.161,85.1,0.948,74.1,inactive
HDAC10,1,-0.454,72.8,-0.338,89,inactive
HDAC10,2,-0.262,76.7,-0.464,96.8,inactive
HDAC10,3,-0.116,79.6,-0.416,99.2,inactive
SAFB,1,0.0159,82.2,-0.284,99,inactive
SAFB,2,-0.865,64.7,-1.62,111,inactive
SAFB,3,0.44,90.6,0.134,97.8,inactive
ANLN,1,2.18,125,1,107,inactive
ANLN,2,3.41,150,2.39,89.2,active
ANLN,3,-0.0898,80.1,0.0596,88.1,inactive
VILL,1,0.427,90.4,0.0317,100,inactive
VILL,2,0.34,88.6,0.166,94.8,inactive
VILL,3,0.458,91,-0.0263,102,inactive
XAGE5,1,0.736,96.5,0.158,103,inactive
XAGE5,2,2.24,126,1.56,93.7,inactive
XAGE5,3,1.34,109,0.847,97,inactive
